The values below are quoted from earlier work in paper PMC6061170, “Synthesis and biological investigations of 3β-aminotropane arylamide derivatives with atypical antipsychotic profile” (Medicinal Chemistry Research, 2018).

Broadly, the Ki is the equilibrium dissociation constant of an inhibitor or competing ligand from its target.

Structures are written as SMILES.

This data set concerns the target D2. The conditions noted are these: read-out: D2 Ki; ref Schmidt et al. 2001; cited from earlier work.

In the case of `OCCOCCN1CCN(C2=Nc3ccccc3Sc3ccccc32)CC1` [Quetiapine], the Ki is 180 nM.
